To fix the notation:
T1: T7-RILP (pEF-T7-RILP) (mouse) (UniProt Q5ND29)
T1 sequence (looked up): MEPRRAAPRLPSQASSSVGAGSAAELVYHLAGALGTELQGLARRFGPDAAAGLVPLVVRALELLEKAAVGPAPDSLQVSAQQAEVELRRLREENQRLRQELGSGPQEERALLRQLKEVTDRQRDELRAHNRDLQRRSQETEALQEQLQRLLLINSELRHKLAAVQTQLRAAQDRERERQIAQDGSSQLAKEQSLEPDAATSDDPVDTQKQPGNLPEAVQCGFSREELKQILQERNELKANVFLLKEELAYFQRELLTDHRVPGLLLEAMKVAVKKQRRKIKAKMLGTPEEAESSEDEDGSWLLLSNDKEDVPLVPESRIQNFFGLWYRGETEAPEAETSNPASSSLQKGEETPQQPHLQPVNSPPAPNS

T2: GST-Rab12 (pGEX-4T-3-Rab12) (mouse) (UniProt P35283)
T2 sequence (looked up): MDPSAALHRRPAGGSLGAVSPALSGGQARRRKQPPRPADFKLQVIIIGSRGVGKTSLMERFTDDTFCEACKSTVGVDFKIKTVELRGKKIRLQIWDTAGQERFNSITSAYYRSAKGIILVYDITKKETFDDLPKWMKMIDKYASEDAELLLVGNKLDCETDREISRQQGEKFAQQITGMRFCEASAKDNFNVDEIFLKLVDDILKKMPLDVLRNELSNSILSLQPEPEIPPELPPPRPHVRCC

T3: endogenous Rab12 of RBL cells (rat, UniProt P35284 49-291, limits assumed)
T3 construct: Total Rab12 pulled down from cell lysates (blot reprobed with anti-Rab12)
T3 sequence (looked up): T2 sequence (looked up) with S15G, N214S

T4: GFP-RILP-L2 (mouse RILP-like 2 in pEGFP-C1) (mouse) (UniProt Q99LE1)
T4 sequence (looked up): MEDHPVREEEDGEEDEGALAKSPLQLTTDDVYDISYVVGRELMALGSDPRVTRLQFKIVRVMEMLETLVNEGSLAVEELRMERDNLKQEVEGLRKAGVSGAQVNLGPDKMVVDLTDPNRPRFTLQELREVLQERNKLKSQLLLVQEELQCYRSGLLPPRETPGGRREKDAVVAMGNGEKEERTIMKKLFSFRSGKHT

T5: GFP-RILP-L1 (mouse RILP-like 1 in pEGFP-C1) (mouse) (UniProt Q9JJC6)
T5 sequence (looked up): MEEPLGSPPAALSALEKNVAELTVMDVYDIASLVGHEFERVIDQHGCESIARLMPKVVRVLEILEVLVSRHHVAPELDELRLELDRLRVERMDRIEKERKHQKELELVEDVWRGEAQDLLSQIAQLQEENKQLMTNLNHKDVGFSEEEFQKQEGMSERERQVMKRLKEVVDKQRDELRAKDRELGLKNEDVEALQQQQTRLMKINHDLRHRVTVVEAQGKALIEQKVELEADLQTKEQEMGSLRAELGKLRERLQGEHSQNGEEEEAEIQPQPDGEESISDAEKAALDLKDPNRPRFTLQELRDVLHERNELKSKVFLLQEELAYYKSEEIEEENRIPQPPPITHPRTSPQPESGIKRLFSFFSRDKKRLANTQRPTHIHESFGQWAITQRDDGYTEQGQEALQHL

T6: T7-RILP-L2 (pEF-T7-RILP-L2) (mouse) (UniProt Q99LE1)
T6 sequence (looked up): T4 sequence (looked up)

T7: T7-RILP-L1 (pEF-T7-RILP-L1) (mouse, UniProt Q9JJC6 1-406)
T7 construct: The pEF-T7 plasmid was 'prepared as previously described'; also called T7-tagged RILP-L1; RILP-like 1
T7 sequence (looked up): T5 sequence (looked up)

B1: GFP-RILP (mouse RILP in pEGFP-C1) (other, UniProt Q5ND29 1-369, looked up)
chain: T1 sequence (looked up)
notes: Expressed in transfected RBL cells; tested in cell lysate; also called GFP-fused RILP; pEGFP-C1-RILP; not shown: EGFP of the pEGFP-C1 vector
B2: T7-RILP(N235A) (pEF-T7-RILP(N235A)) (protein, mouse, UniProt Q5ND29 1-369, looked up, not shown: small tags and cut ends)
chain: T1 sequence (looked up) with N235A
B3: GST-RILP (pGEX-4T-3-RILP) (protein, mouse, UniProt Q5ND29 1-369, looked up, not shown: a dimerising Fc or GST)
chain: T1 sequence (looked up)
B4: T7-RILP (pEF-T7-RILP) (protein, mouse, UniProt Q5ND29 1-369, looked up, not shown: small tags and cut ends)
chain: T1 sequence (looked up)
B5: GST-RILP-L2 (pGEX-4T-3-RILP-L2) (other, mouse, UniProt Q99LE1 1-197, looked up)
chain: T4 sequence (looked up)
notes: Immobilized on glutathione agarose beads; not shown: glutathione S-transferase (GST) encoded by the pGEX-4T-3 vector
B6: T7-RILP-L2 (pEF-T7-RILP-L2) (other, mouse, UniProt Q99LE1 1-197, looked up, not shown: small tags and cut ends)
chain: T4 sequence (looked up)
notes: The pEF-T7 plasmid was 'prepared as previously described'; also called T7-tagged RILP-L2; RILP-like 2
B7: GST-RILP-L1 (pGEX-4T-3-RILP-L1) (other, mouse, UniProt Q9JJC6 1-406, looked up)
chain: T5 sequence (looked up)
notes: as for B5
B8: T7-RILP-L1 (pEF-T7-RILP-L1) (protein, mouse, UniProt Q9JJC6 1-406, looked up, not shown: small tags and cut ends)
chain: T5 sequence (looked up)
B9: GST-Rab12 (pGEX-4T-3-Rab12) (other, mouse, UniProt P35283 49-291, looked up)
chain: T2 sequence (looked up)
notes: Immobilized on glutathione agarose beads; pulldown in the presence of 0.5 mM GTPgammaS; also called immobilized Rab12; not shown: glutathione S-transferase (GST) encoded by the pGEX-4T-3 vector

Experiment [1] deals with T1, T7-RILP (pEF-T7-RILP) (mouse). The experiment can be described thus: co-immunoprecipitation of GFP- and T7-tagged forms from RBL cell lysates.
The target is the same in experiment [2]. The experiment can be described thus: co-immunoprecipitation from co-transfected RBL cell lysates, IP anti-GFP, blot anti-T7.
Experiment [3] concerns the target T2, GST-Rab12 (pGEX-4T-3-Rab12) (mouse). The experiment is described as follows: GST-Rab12 pulldown with GTPgammaS, anti-T7 immunoblot. (In general: A western blot detects proteins with antibodies after separation by electrophoresis.)
The target is the same in experiment [4]. The experiment is described as follows: GST-Rab12 pulldown, as recalled in Example 5.
Experiment [5] concerns the target T3, endogenous Rab12 of RBL cells. The experiment can be described thus: GST pulldown from RBL cell lysates, anti-Rab12 immunoblot.
In experiment [6] the target is B1. The experiment can be described thus: reciprocal co-immunoprecipitation, IP anti-T7, blot anti-GFP.
In experiment [7] the target is T2, GST-Rab12 (pGEX-4T-3-Rab12) (mouse). The experiment is described as follows: GST-Rab12 pulldown with GTPgammaS, anti-T7 immunoblot; wild type as the reference.
For experiment [8], the target named is T4, GFP-RILP-L2 (mouse RILP-like 2 in pEGFP-C1) (mouse). The experiment is described as follows: reciprocal co-immunoprecipitation, IP anti-T7, blot anti-GFP.
For experiment [9], the target named is T5, GFP-RILP-L1 (mouse RILP-like 1 in pEGFP-C1) (mouse). The experiment is described as above.
The target of experiment [10] is T6, T7-RILP-L2 (pEF-T7-RILP-L2) (mouse). The experiment can be described thus: GST pulldown with GTPgammaS, anti-T7 immunoblot; wild type as the reference.
For experiment [11], the target named is T7, T7-RILP-L1 (pEF-T7-RILP-L1). The description is as above.
Experiment [12] deals with T1, T7-RILP (pEF-T7-RILP) (mouse). The experiment is described as above.

Substitutions are numbered along the chain they refer to. Names may count otherwise. Results are given in words; binding and its absence hold for the method and conditions named. In cells and extracts the contact can be indirect. Some results given as binding are weak or reduced against the parent protein; the word gives no strength. Where a sequence is shown, tags or fusion partners need not be part of it.

Consider B1, for which the binding result in experiment [1] and in experiment [2] was “binds” each time.
As to B2, the binding entry in experiment [3] and in experiment [4] was “binds” in each case.
For the molecule B3, the binding result in [5] was “binds”.
For B4, the binding entry in [6] and in experiment [7] was “binds” in each case.
B5: the binding result in experiment [5] is on record as “binds”.
Regarding B6, the binding entry in [8] was “binds”.
Regarding B7, in experiment [5], the binding result is “binds”.
For B8, in experiment [9], the binding entry is on record as “binds”.
Consider B9, for which the binding result in [10], in experiment [11] and in experiment [12] was “binds” each time.
